Consider 2 substances from publication PMC3581582.

Assay [1] addresses TbMCM-BP-myc (Trypanosoma brucei) (UniProt Q57V33). Put plainly: co-IP; reciprocal co-IPs from lysates of BF T. brucei expressing epitope-tagged proteins from their endogenous loci; lysis buffer 25 mM Tris-HCl pH 8.0, 1 mM EDTA, 0.5% NP-40, 10% glycerol, 1 mM PMSF, 1 mM DTT; IP and immunoblot with anti-myc or anti-flag. On the technique in general: A western blot detects proteins with antibodies after separation by electrophoresis.

Assay [2] deals with MCM5-flag (Trypanosoma brucei) (UniProt Q385L1). Described as above.

Results are given in words; binding and its absence hold for the method and conditions named. In cells and extracts the contact can be indirect. Binding can be weak; no strength is given.

Turning to MCM5-flag (from UniProt Q385L1), the binding entry in assay [1] is on record as “binds”.

With TbMCM-BP-myc (from UniProt Q57V33), the binding entry in assay [2] is given as “binds”.
